# The list shows a part of the results.
# B1: B3GalT2 (Rattus norvegicus) (protein)
# chain: LMLQWRRRHCCFAKMSWNAKRSLFRTHLMGVLSLVFLFAMFLFFNHHDWLPGRPGFKENPVTYTFRGFRSTKTETNQSSLRNIWKEVVPQTLRPQTATNSNNTELSPQGVTGLENTLSANGSIYNEKGTGHPNSYHFKYIINEPEKCQEKSPFLILLIAAEPGQIEARRAIRQTWGNETLAPGIQITRIFLLGISIKLNGYLQHAIQEESIQYHDIIQQEYLDTYYNLTIKTLMGMNWVATYCPHTPYVMKTDSDMFVNTEYLIHKLLKPDLPPRHNYFTGYLMRGYAPNRNKDSKWYMPPDLYPSERYPVFCSGTGYVFSGDLAEKIFKVSLGIRRLHLEDVYVGICLAKLRVDPVPPPNEFVFNHWRVSYSSCKYSHLITSHQFQPSELIKYWNHLQQNKHNACVNAAKEKAGRYRHRKLH
# Experiments:
# Assay in all cases: glycan array binding signal (z-score within array); higher = stronger binding
# Settings in all cases: glycan notation: IUPAC condensed, linker removed
# [1] = biological target: Gal(b1-3)[Fuc(a1-4)]GlcNAc(b1-6)GalNAc
# Outline: (§1)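 Arrays were curated from the Consortium for Functional Glycomics database, 3228 in total, and kept only where the protein sequence was available. Binding is expressed as a within-array Z-score. This score was averaged across arrays of the same protein sequence at different concentrations or buffers and across linkers, and negative values can be read as non-binding.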
# [2] = biological target: Gal(b1-3)[GlcNAc(b1-6)]GalNAc
# Outline: as §1
# [3] = biological target: Gal(b1-3)[Neu5Ac(a2-6)]GalNAc
# Outline: as §1
# [4] = biological target: Gal(b1-3)[Neu5Ac(a2-6)]GlcNAc(b1-4)Gal(b1-4)Glc
# Outline: as §1
# [5] = biological target: Gal(b1-3)[Neu5Ac(b2-6)]GalNAc
# Outline: as §1
# [6] = biological target: Gal(b1-4)Gal
# Outline: as §1
# [7] = biological target: Gal(b1-4)GalNAc(a1-3)[Fuc(a1-2)]Gal(b1-4)GlcNAc
# Outline: as §1
# [8] = biological target: Gal(b1-4)GalNAc(b1-3)[Fuc(a1-2)]Gal(b1-4)GlcNAc
# Outline: as §1
# [9] = biological target: Gal(b1-4)Glc
# Outline: as §1
# [10] = biological target: Gal(b1-4)Glc6S
# Outline: as §1
# [11] = biological target: Gal(b1-4)GlcNAc
# Outline: as §1
# [12] = biological target: Gal(b1-4)GlcNAc(a1-6)Gal(b1-4)GlcNAc
# Outline: as §1
# [13] = biological target: Gal(b1-4)GlcNAc(b1-2)Man
# Outline: as §1
# [14] = biological target: Gal(b1-4)GlcNAc(b1-2)Man(a1-3)Man(b1-4)GlcNAc(b1-4)GlcNAc
# Outline: as §1
# [15] = biological target: Gal(b1-4)GlcNAc(b1-2)Man(a1-3)[Gal(b1-4)GlcNAc(b1-2)Man(a1-6)]Man(b1-4)GlcNAc(b1-4)GlcNAc
# Outline: as §1
# [16] = biological target: Gal(b1-4)GlcNAc(b1-2)Man(a1-3)[Gal(b1-4)GlcNAc(b1-2)Man(a1-6)]Man(b1-4)GlcNAc(b1-4)[Fuc(a1-6)]GlcNAc
# Outline: as §1
# [17] = biological target: Gal(b1-4)GlcNAc(b1-2)Man(a1-3)[Gal(b1-4)GlcNAc(b1-2)Man(a1-6)][Gal(b1-4)GlcNAc(b1-4)]Man(b1-4)GlcNAc(b1-4)[Fuc(a1-6)]GlcNAc
# Outline: as §1
# [18] = biological target: Gal(b1-4)GlcNAc(b1-2)Man(a1-3)[Gal(b1-4)GlcNAc(b1-2)Man(a1-6)][GlcNAc(b1-4)]Man(b1-4)GlcNAc(b1-4)[Fuc(a1-6)]GlcNAc
# Outline: as §1
# [19] = biological target: Gal(b1-4)GlcNAc(b1-2)Man(a1-3)[GlcNAc(b1-2)Man(a1-6)]Man(b1-4)GlcNAc(b1-4)GlcNAc
# Outline: as §1
# [20] = biological target: Gal(b1-4)GlcNAc(b1-2)Man(a1-3)[GlcNAc(b1-4)][Gal(b1-4)GlcNAc(b1-2)Man(a1-6)]Man(b1-4)GlcNAc(b1-4)GlcNAc
# Outline: as §1
# [21] = biological target: Gal(b1-4)GlcNAc(b1-2)Man(a1-3)[Man(a1-6)]Man(b1-4)GlcNAc(b1-4)GlcNAc
# Outline: as §1
# [22] = biological target: Gal(b1-4)GlcNAc(b1-2)Man(a1-6)Man(b1-4)GlcNAc(b1-4)GlcNAc
# Outline: as §1
# [23] = biological target: Gal(b1-4)GlcNAc(b1-2)Man(a1-6)[GlcNAc(b1-2)Man(a1-3)]Man(b1-4)GlcNAc(b1-4)GlcNAc
# Outline: as §1
# [24] = biological target: Gal(b1-4)GlcNAc(b1-2)Man(a1-6)[Man(a1-3)]Man(b1-4)GlcNAc(b1-4)GlcNAc
# Outline: as §1
# [25] = biological target: Gal(b1-4)GlcNAc(b1-2)[Gal(b1-4)GlcNAc(b1-4)]Man(a1-3)[Gal(b1-4)GlcNAc(b1-2)Man(a1-6)]Man(b1-4)GlcNAc(b1-4)GlcNAc
# Outline: as §1
# [26] = biological target: Gal(b1-4)GlcNAc(b1-2)[Gal(b1-4)GlcNAc(b1-4)]Man(a1-3)[Gal(b1-4)GlcNAc(b1-2)[Gal(b1-4)GlcNAc(b1-6)]Man(a1-6)]Man(b1-4)GlcNAc(b1-4)GlcNAc
# Outline: as §1
# [27] = biological target: Gal(b1-4)GlcNAc(b1-2)[Gal(b1-4)GlcNAc(b1-4)]Man(a1-3)[GlcNAc(b1-4)][Gal(b1-4)GlcNAc(b1-2)Man(a1-6)]Man(b1-4)GlcNAc(b1-4)GlcNAc
# Outline: as §1
# [28] = biological target: Gal(b1-4)GlcNAc(b1-2)[Gal(b1-4)GlcNAc(b1-4)]Man(a1-3)[GlcNAc(b1-4)][Gal(b1-4)GlcNAc(b1-2)[Gal(b1-4)GlcNAc(b1-6)]Man(a1-6)]Man(b1-4)GlcNAc(b1-4)GlcNAc
# Outline: as §1
# [29] = biological target: Gal(b1-4)GlcNAc(b1-2)[Gal(b1-4)GlcNAc(b1-6)]Man(a1-6)[Gal(b1-4)GlcNAc(b1-2)Man(a1-3)]Man(b1-4)GlcNAc(b1-4)GlcNAc
# Outline: as §1
# [30] = biological target: Gal(b1-4)GlcNAc(b1-2)[Gal(b1-4)GlcNAc(b1-6)]Man(a1-6)[Gal(b1-4)GlcNAc(b1-2)Man(a1-3)]Man(b1-4)GlcNAc(b1-4)[Fuc(a1-6)]GlcNAc
# Outline: as §1
# [31] = biological target: Gal(b1-4)GlcNAc(b1-2)[Gal(b1-4)GlcNAc(b1-6)]Man(a1-6)[GlcNAc(b1-4)][Gal(b1-4)GlcNAc(b1-2)Man(a1-3)]Man(b1-4)GlcNAc(b1-4)GlcNAc
# Outline: as §1
# [32] = biological target: Gal(b1-4)GlcNAc(b1-2)[Gal(b1-4)GlcNAc(b1-6)]Man(a1-6)[GlcNAc(b1-4)][Gal(b1-4)GlcNAc(b1-2)[Gal(b1-4)GlcNAc(b1-4)]Man(a1-3)]Man(b1-4)GlcNAc(b1-4)[Fuc(a1-6)]GlcNAc
# Outline: as §1
# [33] = biological target: Gal(b1-4)GlcNAc(b1-3)Gal(b1-3)GalNAc
# Outline: as §1
# [34] = biological target: Gal(b1-4)GlcNAc(b1-3)Gal(b1-3)GlcNAc
# Outline: as §1
# [35] = biological target: Gal(b1-4)GlcNAc(b1-3)Gal(b1-4)Glc
# Outline: as §1
# [36] = biological target: Gal(b1-4)GlcNAc(b1-3)Gal(b1-4)GlcNAc
# Outline: as §1
# [37] = biological target: Gal(b1-4)GlcNAc(b1-3)Gal(b1-4)GlcNAc(b1-2)Man(a1-3)[Gal(b1-4)GlcNAc(b1-3)Gal(b1-4)GlcNAc(b1-2)Man(a1-6)]Man(b1-4)GlcNAc(b1-4)GlcNAc
# Outline: as §1
# [38] = biological target: Gal(b1-4)GlcNAc(b1-3)Gal(b1-4)GlcNAc(b1-2)Man(a1-3)[Gal(b1-4)GlcNAc(b1-3)Gal(b1-4)GlcNAc(b1-2)Man(a1-6)]Man(b1-4)GlcNAc(b1-4)[Fuc(a1-6)]GlcNAc
# Outline: as §1
binder,measurement,setting,value
B1,glycan array binding signal (z-score),[1],-0.962
same,glycan array binding signal (z-score),[2],0.288
same,glycan array binding signal (z-score),[3],0.06
same,glycan array binding signal (z-score),[4],-0.723
same,glycan array binding signal (z-score),[5],-0.113
same,glycan array binding signal (z-score),[6],-0.869
same,glycan array binding signal (z-score),[7],-1.07
same,glycan array binding signal (z-score),[8],-0.715
same,glycan array binding signal (z-score),[9],-0.279
same,glycan array binding signal (z-score),[10],0.586
same,glycan array binding signal (z-score),[11],0.882
same,glycan array binding signal (z-score),[12],0.093
same,glycan array binding signal (z-score),[13],0.209
same,glycan array binding signal (z-score),[14],-0.898
same,glycan array binding signal (z-score),[15],-0.8
same,glycan array binding signal (z-score),[16],0.541
same,glycan array binding signal (z-score),[17],1.2
same,glycan array binding signal (z-score),[18],-0.425
same,glycan array binding signal (z-score),[19],-0.763
same,glycan array binding signal (z-score),[20],-0.363
same,glycan array binding signal (z-score),[21],0.177
same,glycan array binding signal (z-score),[22],0.051
same,glycan array binding signal (z-score),[23],-0.128
same,glycan array binding signal (z-score),[24],-0.953
same,glycan array binding signal (z-score),[25],-0.941
same,glycan array binding signal (z-score),[26],-0.929
same,glycan array binding signal (z-score),[27],-0.433
same,glycan array binding signal (z-score),[28],0.352
same,glycan array binding signal (z-score),[29],-0.761
same,glycan array binding signal (z-score),[30],-0.609
same,glycan array binding signal (z-score),[31],-0.839
same,glycan array binding signal (z-score),[32],-0.758
same,glycan array binding signal (z-score),[33],0.197
same,glycan array binding signal (z-score),[34],-0.757
same,glycan array binding signal (z-score),[35],-0.447
same,glycan array binding signal (z-score),[36],0.439
same,glycan array binding signal (z-score),[37],-0.611
same,glycan array binding signal (z-score),[38],-0.476

# Not a retest: an excerpt of the list.
binder,measurement,setting,value
B1,glycan array binding signal (z-score),[29],-0.761
same,glycan array binding signal (z-score),[30],-0.609
same,glycan array binding signal (z-score),[31],-0.839
